The values that follow are results of earlier work, collected in PMC9321663, “The DevTox Germ Layer Reporter Platform: An Assay Adaptation of the Human Pluripotent Stem Cell Test” (Toxics, 2022).

The conditions of this series: developmental toxicant classification, cited from earlier work.
Where [1] appears, read: quickPredict comparison chemical set.

Structures can show the parent of a compound that is named as a salt. Where two headings read alike, the source gives them in different places. Starred links: 1 amine or outer side, 2 acyl side, 3 side chain; linkers in the order of their positions; H or OH if unused. Positions of bridges follow the written chain, without caps; N, C: chain ends. Non-standard residues stand in square brackets, D forms with d. Residues, ends and D or L forms follow the SMILES beside them. Chains are numbered I, II in the order given. Actinocin(9to1) = Cc1c2oc3c(C)ccc(C(=O)[*:1])c3nc-2c(C(=O)[*:2])c(N)c1=O; NMeV = CN[C@H](C(=O)O)C(C)C; Sar = CNCC(=O)O

For the molecule `C[C@@H]1C[C@H]2[C@@H]3CCC4=CC(=O)C=C[C@]4(C)[C@@]3(F)[C@@H](O)C[C@]2(C)[C@@]1(O)C(=O)CO` [Dexamethasone], the “DT Class.” value under setting [1] is listed as “Pos”.

`NNC(=O)c1ccncc1` [Isoniazid]: under setting [1], the “DT Class.” value is on record as “Neg”.

`COc1cc2c(Nc3ccc(Br)cc3F)ncnc2cc1OCC1CCN(C)CC1` [Vandetanib]: the “DT Class.” value (hPST comparison chemical set) is “Pos”.

As for `Nc1ccn([C@@H]2O[C@H](CO)[C@@H](O)[C@@H]2O)c(=O)n1` [Cytarabine], the “DT Class.” value under setting [1] is recorded as “Pos”.

For the molecule `CN1CCN2c3ccccc3Cc3ccccc3C2C1` (stereo not drawn) [Mianserin], under “hPST comparison chemical set”, the “DT Class.” value is “Pos”.

For `CCCCOC(=O)c1ccc(O)cc1` [Butylparaben, 4−Hydroxybenzoic acid butyl ester], the “DT Class.” value under setting [1] is reported as “Neg”.

With `O=C(O)c1cccnc1` [Niacin, Nicotinic acid], the “DT Class.” value (hPST comparison chemical set) is “Neg”.

As to `O=c1[nH]c(=O)n([C@H]2C[C@H](O)[C@@H](CO)O2)cc1Br` [5-Bromo-2’-deoxyuridine], under “hPST comparison chemical set”, the “DT Class.” value is listed as “Pos”.

Take `CCCCc1oc2ccccc2c1C(=O)c1cc(I)c(OCCN(CC)CC)c(I)c1` [Amiodarone]: the “DT Class.” value under setting [1] was “Pos”.

With `Cc1cn([C@H]2C=C[C@@H](CO)O2)c(=O)[nH]c1=O` [Stavudine], the “DT Class.” value under setting [1] is listed as “Pos”.

On to `COc1cccc2c1C(=O)c1c(O)c3c(c(O)c1C2=O)C[C@@](O)(C(=O)CO)C[C@@H]3O[C@H]1C[C@H](N)[C@H](O)[C@H](C)O1` [Doxorubicin], for which, for the setting “hPST comparison chemical set”, the “DT Class.” value is “Pos”.

Consider `CCCc1cc(=O)[nH]c(=S)[nH]1`, for which, under setting [1], the “DT Class.” value was “Pos”.

Consider `NC(=O)NO` [Hydroxyurea], for which the “DT Class.” value under setting [1] is recorded as “Pos”.

As to `CC(O)CO` (stereo not drawn) [1,2-Propylene glycol], the “DT Class.” value under setting [1] was “Neg”.

With `O=C(O)c1ccccc1O` [Salicylic Acid], the “DT Class.” value under setting [1] is “Neg”.

As for `CCCC(CCC)C(=O)O` [Valproic Acid], the “DT Class.” value by setting is: (hPST comparison chemical set) “Pos”; under setting [1], “Pos”.

In the case of `c1cc(-c2cnn3cc(-c4ccc(OCCN5CCCCC5)cc4)cnc23)ccn1` [Dorsomorphin], the “DT Class.” value (hPST comparison chemical set) was “Pos”.

For the molecule `NC(=O)N1c2ccccc2C=Cc2ccccc21` [Carbamazepine], the “DT Class.” value by setting is: (hPST comparison chemical set) “Pos”; under setting [1], “Pos”.

As for `C[C@](N)(Cc1ccc(O)c(O)c1)C(=O)O` [Methyldopa], the “DT Class.” value (hPST comparison chemical set) is recorded as “Neg”.

For the molecule `O=C1Cc2cc(CCN3CCN(c4nsc5ccccc45)CC3)c(Cl)cc2N1` [Ziprasidone], the “DT Class.” value (hPST comparison chemical set) is “Pos”.

For the molecule `O=P1(N(CCCl)CCCl)NCCCO1` (stereo not drawn) [Cyclophosphamide], the “DT Class.” value under setting [1] is reported as “Pos”.

`COc1ccc2nc([S@@+]([O-])Cc3ncc(C)c(OC)c3C)[nH]c2c1` [Esomeprazole]: the “DT Class.” value (hPST comparison chemical set) is “Neg”.

Turning to `Cc1nc2sccn2c(=O)c1CCN1CCC(=C(c2ccc(F)cc2)c2ccc(F)cc2)CC1` [Ritanserin], the “DT Class.” value (hPST comparison chemical set) is on record as “Pos”.

For `O=C(c1ccc(F)cc1)C1CCN(CCn2c(=O)[nH]c3ccccc3c2=O)CC1` [Ketanserin], the “DT Class.” value (hPST comparison chemical set) is “Neg”.

Consider `CC1=C(/C=C/C(C)=C/C=C/C(C)=C\C(=O)O)C(C)(C)CCC1`, for which the “DT Class.” value (hPST comparison chemical set) is “Pos”.

As to `O=C1NC(=O)C(c2ccccc2)(c2ccccc2)N1`, the “DT Class.” value under setting [1] is listed as “Pos”.

Turning to `O=C1CCC(N2C(=O)c3ccccc3C2=O)C(=O)N1` (stereo not drawn) [Thalidomide], the “DT Class.” value is, setting by setting: (hPST comparison chemical set) “Pos”; under setting [1], “Pos”.

In the case of `O=C1NS(=O)(=O)c2ccccc21` [Saccharin], the “DT Class.” value (hPST comparison chemical set) is “Neg” and the “DT Class.” value under setting [1] is reported as “Neg”.

For `O=c1[nH]cc(F)c(=O)[nH]1` [5-Fluorouracil], the “DT Class.” value by setting is: (hPST comparison chemical set) “Pos”; under setting [1], “Pos”.

`CC/C(=C(/CC)c1ccc(O)cc1)c1ccc(O)cc1` [Diethylstilbestrol]: the “DT Class.” value was “Pos” (hPST comparison chemical set) and “Pos” under setting [1].

For `CC1=C(/C=C/C(C)=C/C=C/C(C)=C/CO)C(C)(C)CCC1` [Retinol], under setting [1], the “DT Class.” value is listed as “Neg”.

On to `CC1=C2C[C@H]3[C@@H](CC=C4C[C@@H](O)CC[C@@]43C)[C@@H]2CC[C@]12O[C@@H]1C[C@H](C)CN[C@H]1[C@H]2C` [Cyclopamine], for which, under setting [1], the “DT Class.” value is on record as “Pos”.

Regarding `CC1=C(/C=C/C(C)=C/C=C/C(C)=C/C(=O)O)C(C)(C)CCC1`, the “DT Class.” value by setting is: (hPST comparison chemical set) “Pos”; under setting [1], “Pos”.

With `CS(=O)(=O)OCCCCOS(C)(=O)=O` [Busulfan], under setting [1], the “DT Class.” value is reported as “Pos”.

`CCCCC(CC)COC(=O)c1ccccc1C(=O)O` (stereo not drawn) [MEHP]: the “DT Class.” value under setting [1] was “Pos”.

Regarding `CC(C)(c1ccc(O)cc1)c1ccc(O)cc1` [Bisphenol A], the “DT Class.” value under setting [1] was “Pos”.

With `CN(Cc1cnc2nc(N)nc(N)c2n1)c1ccc(C(=O)N[C@@H](CCC(=O)O)C(=O)O)cc1` [Methotrexate], the “DT Class.” value under setting [1] is “Pos”.

With `OB(O)O` [Boric acid], the “DT Class.” value under setting [1] is reported as “Pos”.

Regarding `Cc1c2oc3c(C)ccc(C(=O)N[C@@H]4C(=O)N[C@H](C(C)C)C(=O)N5CCC[C@H]5C(=O)N(C)CC(=O)N(C)[C@@H](C(C)C)C(=O)O[C@@H]4C)c3nc-2c(C(=O)N[C@@H]2C(=O)N[C@H](C(C)C)C(=O)N3CCC[C@H]3C(=O)N(C)CC(=O)N(C)[C@@H](C(C)C)C(=O)O[C@@H]2C)c(N)c1=O` [Actinomycin D] (I: T[dV]P[Sar][NMeV] / II: T[dV]P[Sar][NMeV]; ester I:1-I:C, II:1-II:C; linker I:N-II:N via Actinocin(9to1)), the “DT Class.” value (hPST comparison chemical set) was “Pos”.

For `[H]/N=C(/NCCCCC)N/N=C/c1c[nH]c2ccc(OC)cc12` [Tegaserod Maleate], for the setting “hPST comparison chemical set”, the “DT Class.” value is listed as “Neg”.

Take `COC(=O)c1ccccc1C(=O)OC` [Dimethyl Phthalate]: the “DT Class.” value under setting [1] is “Neg”.

In the case of `CC[C@H](C)C(=O)O[C@H]1C[C@@H](C)C=C2C=C[C@H](C)[C@H](CC[C@@H]3C[C@@H](O)CC(=O)O3)[C@H]21` [Lovastatin], under setting [1], the “DT Class.” value is “Pos”.

Regarding `Cc1nc(Nc2ncc(C(=O)Nc3c(C)cccc3Cl)s2)cc(N2CCN(CCO)CC2)n1` [Dasatinib], where the note is “hPST comparison chemical set”, the “DT Class.” value is recorded as “Pos”.

In the case of `CCN(CC)CCNC(=O)c1c(C)[nH]c(/C=C2\C(=O)Nc3ccc(F)cc32)c1C` [Sunitinib], the “DT Class.” value (hPST comparison chemical set) is given as “Pos”.

On to `NC(=O)c1ccc(N)nc1` [6-Aminonicotinamide, 6−aminopyridine−3−carboxamide], for which the “DT Class.” value (hPST comparison chemical set) is “Pos”.

Regarding `CNC(=O)c1cc(Oc2ccc(NC(=O)Nc3ccc(Cl)c(C(F)(F)F)c3)cc2)ccn1` [Sorafenib], the “DT Class.” value (hPST comparison chemical set) is listed as “Pos”.

Consider `CC(=O)Oc1ccccc1C(=O)O` [Aspirin], for which the “DT Class.” value (hPST comparison chemical set) is on record as “Neg” and the “DT Class.” value under setting [1] is reported as “Neg”.

Turning to `CO[C@H]1/C=C/O[C@@]2(C)Oc3c(C)c(O)c4c(O)c(c(/C=N/N5CCN(C)CC5)c(O)c4c3C2=O)NC(=O)/C(C)=C\C=C\[C@H](C)[C@H](O)[C@@H](C)[C@@H](O)[C@@H](C)[C@H](OC(C)=O)[C@@H]1C` [Rifampicin], the “DT Class.” value under setting [1] is given as “Pos”.

As for `Oc1cc(O)c2c(c1)O[C@H](c1ccc(O)c(O)c1)[C@@H](O)C2` [Cianidanol], the “DT Class.” value (hPST comparison chemical set) is “Neg”.
